Laboratory results: PubChem BioAssay (EPA / NIEHS)
Where “and” joins values, the source holds several entries; their conditions need not be identical. Identical values can stand only once. Inconclusive results, whose numbers are uncertain, are shown with a selection of clear calls. For some of these results: Potencies beside an inconclusive call are fits to weak or partial responses and may not hold up. Calls of active or inactive are those of the source. How the source made its calls: active means hit-call score of the fitted dose curve at least 0.9, where 1 is the maximum; inconclusive means response in the unintended direction; inactive means score below 0.9.

By UniProt entry, the sequences of proteins in these tests, tags left out. Where a name states a change or a piece, a line headed by the entry shows the natural chain unless it says otherwise.
UniProt Q96RI1: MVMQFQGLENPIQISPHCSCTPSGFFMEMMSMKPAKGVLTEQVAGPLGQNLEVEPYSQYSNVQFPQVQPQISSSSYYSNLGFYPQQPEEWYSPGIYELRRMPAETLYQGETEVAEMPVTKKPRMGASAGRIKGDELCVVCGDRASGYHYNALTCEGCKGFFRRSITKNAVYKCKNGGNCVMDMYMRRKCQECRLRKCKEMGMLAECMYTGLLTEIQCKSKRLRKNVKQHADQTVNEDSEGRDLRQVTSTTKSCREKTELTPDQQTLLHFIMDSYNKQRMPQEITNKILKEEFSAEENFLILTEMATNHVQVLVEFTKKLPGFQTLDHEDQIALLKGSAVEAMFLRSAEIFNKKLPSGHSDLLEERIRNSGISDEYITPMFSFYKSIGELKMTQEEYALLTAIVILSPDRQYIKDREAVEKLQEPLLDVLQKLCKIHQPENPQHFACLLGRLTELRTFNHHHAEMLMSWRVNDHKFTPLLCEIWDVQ
UniProt P11473: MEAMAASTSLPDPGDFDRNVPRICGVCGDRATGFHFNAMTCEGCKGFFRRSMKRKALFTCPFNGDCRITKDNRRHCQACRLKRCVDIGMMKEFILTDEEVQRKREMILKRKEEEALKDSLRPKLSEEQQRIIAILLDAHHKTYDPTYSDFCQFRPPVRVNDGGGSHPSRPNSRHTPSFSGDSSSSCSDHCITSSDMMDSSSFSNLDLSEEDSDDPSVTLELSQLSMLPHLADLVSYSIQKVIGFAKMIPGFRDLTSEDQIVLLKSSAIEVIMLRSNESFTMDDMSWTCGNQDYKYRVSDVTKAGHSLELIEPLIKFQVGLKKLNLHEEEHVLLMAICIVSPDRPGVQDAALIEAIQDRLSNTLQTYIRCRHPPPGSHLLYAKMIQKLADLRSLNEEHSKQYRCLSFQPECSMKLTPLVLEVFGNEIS
UniProt O75469: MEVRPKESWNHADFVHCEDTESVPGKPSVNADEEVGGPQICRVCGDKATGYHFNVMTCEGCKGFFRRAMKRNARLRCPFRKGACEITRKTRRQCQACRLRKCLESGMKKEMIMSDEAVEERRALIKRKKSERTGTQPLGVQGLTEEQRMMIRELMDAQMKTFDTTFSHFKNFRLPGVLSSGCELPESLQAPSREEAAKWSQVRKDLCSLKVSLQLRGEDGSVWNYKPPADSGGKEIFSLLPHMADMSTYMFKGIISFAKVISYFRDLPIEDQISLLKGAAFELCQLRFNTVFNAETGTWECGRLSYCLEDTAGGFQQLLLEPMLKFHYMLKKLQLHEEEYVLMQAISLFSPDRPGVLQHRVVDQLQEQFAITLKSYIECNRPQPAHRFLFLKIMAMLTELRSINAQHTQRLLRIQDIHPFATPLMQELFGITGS
UniProt P19793: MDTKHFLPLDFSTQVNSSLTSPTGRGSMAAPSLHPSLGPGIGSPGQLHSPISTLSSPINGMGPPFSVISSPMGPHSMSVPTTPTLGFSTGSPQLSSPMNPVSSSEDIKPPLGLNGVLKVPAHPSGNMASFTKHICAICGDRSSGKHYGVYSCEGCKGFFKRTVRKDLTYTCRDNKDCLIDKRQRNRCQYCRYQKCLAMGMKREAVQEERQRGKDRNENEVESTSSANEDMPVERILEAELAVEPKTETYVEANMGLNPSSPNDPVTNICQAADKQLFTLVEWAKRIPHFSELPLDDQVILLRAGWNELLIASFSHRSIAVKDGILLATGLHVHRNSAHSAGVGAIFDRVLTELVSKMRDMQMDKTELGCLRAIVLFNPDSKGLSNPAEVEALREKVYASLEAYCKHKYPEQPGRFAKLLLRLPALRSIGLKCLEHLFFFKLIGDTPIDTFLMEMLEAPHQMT
UniProt P04637, whole entry, looked up: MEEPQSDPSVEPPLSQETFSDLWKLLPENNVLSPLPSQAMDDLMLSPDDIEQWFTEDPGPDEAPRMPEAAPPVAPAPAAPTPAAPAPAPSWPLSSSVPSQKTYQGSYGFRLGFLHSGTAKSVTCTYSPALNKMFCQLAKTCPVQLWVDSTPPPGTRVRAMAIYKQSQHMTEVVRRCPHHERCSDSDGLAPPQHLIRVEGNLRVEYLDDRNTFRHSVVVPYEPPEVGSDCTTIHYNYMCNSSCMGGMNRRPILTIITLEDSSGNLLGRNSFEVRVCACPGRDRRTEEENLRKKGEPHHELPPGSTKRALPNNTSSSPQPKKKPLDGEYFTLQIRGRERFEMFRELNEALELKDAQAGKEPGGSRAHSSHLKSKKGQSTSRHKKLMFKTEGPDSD
UniProt P04150: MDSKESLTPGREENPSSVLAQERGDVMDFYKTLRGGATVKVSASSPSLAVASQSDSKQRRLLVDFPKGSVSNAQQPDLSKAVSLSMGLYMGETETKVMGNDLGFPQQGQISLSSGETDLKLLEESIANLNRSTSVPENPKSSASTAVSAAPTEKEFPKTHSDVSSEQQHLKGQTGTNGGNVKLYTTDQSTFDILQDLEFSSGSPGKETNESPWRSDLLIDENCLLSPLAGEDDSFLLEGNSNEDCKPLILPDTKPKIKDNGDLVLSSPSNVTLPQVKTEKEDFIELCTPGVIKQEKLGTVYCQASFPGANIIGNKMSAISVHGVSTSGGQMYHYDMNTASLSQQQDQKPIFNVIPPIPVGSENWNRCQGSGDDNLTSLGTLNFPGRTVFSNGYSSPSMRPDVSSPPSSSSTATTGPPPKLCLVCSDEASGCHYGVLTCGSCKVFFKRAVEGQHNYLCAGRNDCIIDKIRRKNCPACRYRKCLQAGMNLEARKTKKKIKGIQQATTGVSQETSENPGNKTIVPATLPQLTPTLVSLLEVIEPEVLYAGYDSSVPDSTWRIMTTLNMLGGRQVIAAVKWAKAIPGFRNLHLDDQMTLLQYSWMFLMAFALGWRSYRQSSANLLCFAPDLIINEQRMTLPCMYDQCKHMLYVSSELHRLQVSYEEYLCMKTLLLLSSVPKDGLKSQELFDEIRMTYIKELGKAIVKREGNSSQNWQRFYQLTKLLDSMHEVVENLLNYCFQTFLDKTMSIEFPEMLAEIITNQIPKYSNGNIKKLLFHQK
UniProt Q03181: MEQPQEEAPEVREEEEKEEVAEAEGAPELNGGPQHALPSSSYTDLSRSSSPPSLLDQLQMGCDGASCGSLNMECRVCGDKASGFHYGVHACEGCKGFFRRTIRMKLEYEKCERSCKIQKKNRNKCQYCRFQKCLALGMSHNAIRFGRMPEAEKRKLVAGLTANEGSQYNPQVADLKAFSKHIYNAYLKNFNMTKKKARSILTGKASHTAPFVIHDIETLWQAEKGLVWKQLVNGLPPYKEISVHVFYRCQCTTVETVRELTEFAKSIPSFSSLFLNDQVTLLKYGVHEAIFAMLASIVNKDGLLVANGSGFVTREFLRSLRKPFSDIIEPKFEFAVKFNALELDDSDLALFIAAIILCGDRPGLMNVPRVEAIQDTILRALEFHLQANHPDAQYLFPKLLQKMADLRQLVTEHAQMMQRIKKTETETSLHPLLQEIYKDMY
UniProt P37231: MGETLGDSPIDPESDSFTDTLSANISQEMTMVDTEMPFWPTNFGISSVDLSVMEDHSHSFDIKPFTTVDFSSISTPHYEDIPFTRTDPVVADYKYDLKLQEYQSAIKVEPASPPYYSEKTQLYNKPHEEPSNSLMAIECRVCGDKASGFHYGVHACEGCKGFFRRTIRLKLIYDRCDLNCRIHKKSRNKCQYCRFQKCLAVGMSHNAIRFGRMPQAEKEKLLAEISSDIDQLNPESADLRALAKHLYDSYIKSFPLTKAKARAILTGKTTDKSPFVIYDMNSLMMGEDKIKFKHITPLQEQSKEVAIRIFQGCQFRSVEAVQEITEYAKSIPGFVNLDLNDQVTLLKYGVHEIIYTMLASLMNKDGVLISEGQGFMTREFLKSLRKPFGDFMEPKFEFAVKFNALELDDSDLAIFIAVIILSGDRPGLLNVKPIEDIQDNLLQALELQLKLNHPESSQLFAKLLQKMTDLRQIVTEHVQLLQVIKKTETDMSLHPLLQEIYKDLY
UniProt P62508: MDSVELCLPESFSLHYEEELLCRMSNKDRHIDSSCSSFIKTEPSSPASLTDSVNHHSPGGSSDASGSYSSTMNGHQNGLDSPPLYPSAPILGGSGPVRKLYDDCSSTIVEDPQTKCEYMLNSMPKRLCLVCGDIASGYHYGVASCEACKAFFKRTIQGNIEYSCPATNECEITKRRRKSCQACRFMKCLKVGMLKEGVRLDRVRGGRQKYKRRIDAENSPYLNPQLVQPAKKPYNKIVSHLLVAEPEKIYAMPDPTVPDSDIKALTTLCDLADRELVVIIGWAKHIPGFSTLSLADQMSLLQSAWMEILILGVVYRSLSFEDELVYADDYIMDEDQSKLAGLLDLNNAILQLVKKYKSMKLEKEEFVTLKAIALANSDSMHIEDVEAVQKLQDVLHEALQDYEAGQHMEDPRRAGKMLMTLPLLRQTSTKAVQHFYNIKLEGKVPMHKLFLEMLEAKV

Legend:
[1] = ATG_M_19_TRANS: Attagene TRANS-FACTORIAL HepG2 Assay for M19 Transcription Factor (Internal Marker) (AID 2282974); settings: HepG2 Attagene TRANS-FACTORIAL M19 internal marker reporter
Method in brief: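 After transfection of HepG2 with GAL4-UAS-driven reporter constructs, cells are dosed for 24 h. Total RNA is reverse-transcribed, reporter sequences PCR-amplified and labelled, then HpaI-digested and sized by capillary electrophoresis.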

[2] = target: Bile acid receptor (Homo sapiens) (UniProt Q96RI1); assay: ATG_FXR_TRANS: Attagene TRANS-FACTORIAL HepG2 Assay for Farnesoid X Receptor (FXR) (AID 2282979); settings: HepG2 Attagene TRANS FXR-GAL4 reporter transcription;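 further: hits raise reporter mRNA above DMSO so AC50 marks FXR activation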
Method in brief: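 After 24 h chemical treatment of transfected HepG2 cells, GAL4-UAS reporter transcripts driven by an exogenous FXR-GAL4 fusion were measured by RT-PCR and capillary electrophoresis. Increases over DMSO were fitted.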

[3] = ATG_M_06_TRANS: Attagene TRANS-FACTORIAL HepG2 Assay for M06 Transcription Factor (Internal Marker) (AID 2282983); settings: HepG2 Attagene TRANS M06 internal marker reporter;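 on AC50: potency for rise in reporter mRNA above DMSO baseline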;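 on outcome: reporter transcript level by RT-PCR then capillary electrophoresis fluorescence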
Method in brief: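 Multi-reporter-transfected HepG2, 24 h treatment; reporter transcripts quantified via RT-PCR, primer-extension labelling and CE. DMSO-normalized gain-of-signal fit.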

[4] = target: human Vitamin D Receptor (VDR), VDR (gene 7421) (UniProt P11473); assay: ATG_VDR_TRANS: Attagene TRANS-FACTORIAL HepG2 Assay for human Vitamin D Receptor (VDR) (AID 2283022)
Method in brief: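 Multiplexed TRANS reporter in HepG2; 24 h treatment; reporter mRNA by RT-PCR plus capillary electrophoresis; upregulation scored relative to DMSO.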

[5] = target: Nuclear receptor subfamily 1 group I member 2 (Homo sapiens) (UniProt O75469); assay: NVS_NR_hPXR: NovaScreen (NVS) Nuclear Receptor Binding Assay for human Pregnane X Receptor (PXR) (AID 2283365);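 further: a drop in FRET signal versus DMSO baseline means the compound binds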
Method in brief: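 Read-out: TR-FRET, human PXR, 2 h post-dosing, cell-free. Loss of signal vs DMSO taken as binding activity; 25 uM primary, concentration series secondary.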

[6] = target: Retinoic acid receptor RXR-alpha (Homo sapiens) (UniProt P19793); assay: OT_NURR1_NURR1RXRa_0480: Odyssey Thera (OT) 8-hour HEK293T Protein Complementation Assay for Nurr1/retinoid X receptor (RXR) (AID 2283385)
Method in brief: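 Read-out: fluorescence from protein-fragment complementation between Nurr1 and RXRα in human HEK293T cells, 8 h after dosing. DMSO served as negative control; increased signal counted as activity.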

[7] = target: Cellular tumor antigen p53 (Homo sapiens) (UniProt P04637); assay: TOX21_p53_BLA_p3_ratio: Tox21 HCT-116 p53 Agonism Beta-lactamase Assay, Ratio, Phase 3 (AID 2283596)
Method in brief: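 Cells were seeded at 4000/well, rested 5 h at 37C, then dosed with DMSO compound solutions (217-fold dilution) for 16 h. CCF4-AM substrate was loaded for 2 h at room temperature, and the 460/530 nm emission ratio was fitted for gain of signal versus DMSO.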

[8] = ACEA_AR_agonist_AUC_viability: ACEA Biosciences xCELLigence Real-Time Cell Analysis on Androgen Receptor Agonism for Viability (AID 2283775)
Method in brief: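 Viability endpoint from xCELLigence impedance in 22Rv1 prostate cells at 80 h. Eight-point series, 100 uM maximum final.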

[9] = target: Glucocorticoid receptor (Homo sapiens) (UniProt P04150); assay: ATG_GR_TRANS: Attagene TRANS-FACTORIAL HepG2 Assay for human Glucocorticoid Receptor (GR) (AID 2282978); settings: HepG2 Attagene TRANS GR reporter, mRNA transcription;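 further: activators score as hits since higher reporter transcript over DMSO is fitted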
Method in brief: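 Multiplexed TRANS reporter system, HepG2; 24 h exposure; RNA → oligo(dT) RT → reporter-specific PCR → 6-FAM primer extension → HpaI cut → CE fluorescence. Gain-of-signal vs DMSO.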

[10] = target: Cellular tumor antigen p53 (Homo sapiens) (UniProt P04637); assay: TOX21_p53_BLA_p2_ratio: Tox21 HCT-116 p53 Agonism Beta-lactamase Assay, Ratio, Phase 2 (AID 2283592)
Method in brief: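 DMSO-normalized, positive-direction endpoint derived from the 460 nm/530 nm FRET ratio in HCT116 p53 beta-lactamase reporter cells exposed 16 h at 37C and loaded with CCF4-AM for 2 h.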

[11] = target: human Peroxisome Proliferator-activated Receptor delta (PPARd), PPARD (gene 5467) (UniProt Q03181); assay: ATG_PPARd_TRANS: Attagene TRANS-FACTORIAL HepG2 Assay for human Peroxisome Proliferator-activated Receptor delta (PPARd) (AID 2283002)
Method in brief: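 Multiplexed trans-activation format: HepG2 liver cells expressing exogenous NR-Gal4 chimeras and GAL4-UAS reporters were exposed for 24 h. Reporter mRNA was detected by RT-PCR with capillary electrophoresis fluorescence; activity fitted as gain of signal relative to DMSO.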

[12] = target: Retinoic acid receptor RXR-alpha (Homo sapiens) (UniProt P19793); assay: OT_NURR1_NURR1RXRa_1440: Odyssey Thera (OT) 24-hour HEK293T Protein Complementation Assay for Nurr1/retinoid X receptor (RXR) (AID 2283386)
Method in brief: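 Fluorescence PCA read-out; HEK293T; 24 h post-dose; bait/prey fused to reporter fragments; gain-of-signal fit vs DMSO negative control.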

[13] = target: Cellular tumor antigen p53 (Homo sapiens) (UniProt P04637); assay: TOX21_p53_BLA_p5_ratio: Tox21 HCT-116 p53 Agonism Beta-lactamase Assay, Ratio, Phase 5 (AID 2283599)
Method in brief: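 HCT-116 cells carrying a p53-inducible beta-lactamase reporter were seeded at 4000 cells/well and dosed after 5 h with compound in DMSO (217-fold dilution). After 16 h at 37C, CCF4-AM substrate was added for 2 h, and the 460/530 nm emission ratio was scored as gain-of-signal versus DMSO.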

[14] = CCTE_Harrill_HTTr_CellCount_MCF7: CCTE's Cell Proliferation Assessment for the High-Throughput Transcriptomics (HTTr) Platform, Harrill Lab (AID 2284012);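 further: count of Hoechst-stained nuclei per well by high-content imaging in MCF-7 cells; cells exposed to compound for six hours; intended direction is loss of nuclei count meaning fewer cells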
Method in brief: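 Readout: Hoechst nuclear count by high-content imaging. MCF-7, 8-point dilution series, 6 h exposure. Bidirectional fit vs DMSO baseline.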

[15] = target: Peroxisome proliferator-activated receptor gamma (Homo sapiens) (UniProt P37231); assay: ATG_PPARg_TRANS: Attagene TRANS-FACTORIAL HepG2 Assay for human Peroxisome Proliferator-activated Receptor-gamma (PPARg) (AID 2283007)
Method in brief: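 Human hepatoma HepG2, transient MRTU transfection, 24 h treatment. mRNA reporter signal by RT-PCR plus capillary electrophoresis, fluorescence detection; fitted for increase over DMSO negative control.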

[16] = target: Nuclear receptor subfamily 1 group I member 2 (Homo sapiens) (UniProt O75469); assay: ATG_PXR_TRANS: Attagene TRANS-FACTORIAL HepG2 Assay for human Pregnane X Receptor (PXR) (AID 2283008)
Method in brief: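 Transient HepG2 transfectants carrying multiplexed reporter transcription units; PXR activity read through a Gal4 chimera. 24 h exposure. RT-PCR/CE fluorescence; upward curve fit referenced to DMSO.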

[17] = target: Estrogen-related receptor gamma (Homo sapiens) (UniProt P62508); assay: ATG_ERRg_TRANS: Attagene TRANS-FACTORIAL HepG2 Assay for human Estrogen-Related Receptor gamma (ERRg) (AID 2282977); settings: HepG2 Attagene TRANS reporter, ERRg transactivation;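 further: hits increase reporter signal over DMSO so potencies reflect activators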
Method in brief: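 Readout: fluorescent reporter-mRNA fragments resolved by capillary electrophoresis after RT-PCR and HpaI cut. Cells: transiently transfected HepG2 carrying GAL4-UAS reporters driven by exogenous NR-Gal4 chimeras, dosed 24 h. Activity fitted upward relative to DMSO baseline.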

[18] = ATG_M_32_TRANS: Attagene TRANS-FACTORIAL HepG2 Assay for M32 Transcription Factor (Internal Marker) (AID 2282984); settings: HepG2 Attagene TRANS M32 internal marker reporter;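 on outcome: transcript level of a background control reporter unit measured by RT-PCR and capillary electrophoresis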
Method in brief: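 Fluorescence-detected mRNA induction, HepG2 liver cells, 24 h after dosing. Multiple GAL4-UAS reporter units introduced by transient transfection; background-control endpoint analysed for gain of signal against DMSO.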

CC(C)Nc1ccc(NC(C)C)c2c1C(=O)c1ccccc1C2=O
AC50 [1]: inconclusive: 95.2 µM
AC50 [2]: inconclusive: 1.41 µM
outcome [3]: inactive
outcome [4]: inactive
AC50 [5]: inconclusive: 0.936 µM
outcome [6]: inactive
outcome [7]: inactive
outcome [8]: inactive

O=C(O)c1cccc([N+](=O)[O-])c1
AC50 [1]: inconclusive: 100 µM
outcome [9]: inactive
outcome [10]: inactive

Cn1c(=O)c2[nH]cnc2n(C)c1=O
outcome [1]: inactive
AC50 [3]: inconclusive: 0.00922 µM
AC50 [11]: inconclusive: 0.00914 µM
AC50 [12]: inconclusive: 50 µM
outcome [12]: inactive
AC50 [10]: inconclusive: 46.6 µM
AC50 [7]: inconclusive: 23 µM
AC50 [13]: inconclusive: 46.6 µM and inconclusive: 23 µM
AC50 [14]: inconclusive: 50 µM

OC(O)(C(F)C(O)(O)C(F)(F)F)C(F)(F)F
AC50 [1]: inconclusive: 63.3 µM and inconclusive: 150 µM
AC50 [17]: inconclusive: 0.872 µM
outcome [18]: inactive
AC50 [11]: inconclusive: 2.97 µM
AC50 [15]: active: 150 µM and active: 94.2 µM

COc1ccc(-n2nc(C(F)F)cc2-c2ccc(S(C)=O)cc2)cc1 (stereo not drawn)
outcome [1]: inactive
outcome [15]: inactive
outcome [6]: inactive
outcome [10]: inactive
outcome [14]: inactive

FC(OC(F)(F)C(F)(F)C(F)(F)F)C(F)(F)F (stereo not drawn)
outcome [1]: inactive
AC50 [18]: inconclusive: 100 µM
AC50 [16]: inconclusive: 172 µM

CC(=O)OCCCc1ccccc1
outcome [1]: inactive
outcome [17]: inactive
AC50 [2]: inconclusive: 100 µM
AC50 [3]: inconclusive: 100 µM
AC50 [11]: inconclusive: 2.79 µM

CCCCC(CC)C(=O)O (stereo not drawn)
outcome [1]: inactive
AC50 [18]: inconclusive: 183 µM
AC50 [15]: inconclusive: 1.84 µM and inconclusive: 1.8 µM
outcome [15]: inactive
AC50 [16]: inconclusive: 0.108 µM
AC50 [5]: inconclusive: 10.2 µM
